Results on 65 compounds are retold here after PubChem BioAssay AID493014 (National Center for Advancing Translational Sciences (NCATS), 2011).

The other results are listed elsewhere or left out. Further columns of the screen follow, without active or inactive calls. The list favours compounds with an active or inconclusive main result. Potencies come from curve fits of mixed quality, noted in brackets.

The nature of the test: qHTS Assay to Find Inhibitors of Chronic Active B-Cell Receptor Signaling. Conditions: ABC-DLBCL IkBa-CBG/CBR reporter, luminescence ratio (green luciferase fused to IkBa over red control in TMD8 lymphoma cells), 4 h. In outline: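 TMD8 ABC-DLBCL cells carrying doxycycline-inducible green luciferase fused to IkappaBalpha plus unfused red luciferase were exposed to compounds (up to 46 uM) for 4 hrs at 37C. Activity came from the overlap-corrected green/red luminescence ratio.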
For orientation: Quantitative high-throughput screening tests each substance at several concentrations.

Setting [1] is: measured here: CBR red luminescence, cell number.
The mark [2] stands for this setting: measured here: IkBa-CBG green luminescence.

The AC50 is the concentration giving half of the maximal activity seen. Regarding `COc1ccccc1N1CCN(C(=O)C(=O)N/N=C/c2cccc(O)c2)CC1`, under setting [1], the AC50 was 8.91 µM [rising, partial curve, poor fit].

For the compound `COc1ccc(NC(=O)c2c(NCc3cccs3)sc3c2CCCC3)c(OC)c1`, the AC50 under setting [1] is 7.94 µM [rising, partial curve, poor fit].

Take `COc1cccc(C(=O)NC(=S)Nc2cccnc2)c1`: the AC50 under setting [1] was 7.31 µM [falling, partial curve].

`Cc1ccc2nc(NC(=S)NC(=O)c3cccs3)sc2c1`: the AC50 under setting [1] was 1.12 µM [falling, partial curve, poor fit].

Consider `CCOP(=O)(OCC)c1nc(-c2cccc3ccccc23)oc1NCc1ccc(OC)cc1`, for which the AC50 under setting [1] was 35.5 µM [falling, partial curve, poor fit].

In the case of `Cc1ccc(C2CC(c3cccs3)=NN2C(=O)CSC2=NCCS2)cc1` (stereo not drawn), the AC50 under setting [1] is 35.5 µM [falling, single point].

Regarding `CCCNC(=O)Cn1c(=O)/c(=C\c2ccc(-c3ccc([N+](=O)[O-])cc3)o2)s/c1=C\C(=O)C(C)(C)C`, under setting [1], the AC50 is 0.13 µM [rising, full curve, poor fit].

For the compound `CC(=O)OCCCNc1cc(SCc2ccco2)c2nonc2c1[N+](=O)[O-]`, the AC50 under setting [1] was 23.1 µM [falling, single point].

Turning to `O=C(/C=C/c1ccccc1)Oc1coc(CSc2ncccn2)cc1=O`, the AC50 under setting [1] was 7.94 µM [rising, partial curve, poor fit].

For the compound `COc1ccc2[nH]c(C(=O)Nc3ccccc3Cl)cc2c1`, the AC50 under setting [1] was 22.4 µM [falling, single point].

`Cc1ccc(C)c(NC(=O)CN(C)C(=O)c2cccc(Oc3ccccc3)c2)c1`: under setting [1], the AC50 is 5.17 µM [falling, single point].

Take `O=C(O)Cc1sc(-c2cccnc2)nc1-c1ccc(Br)cc1`: under setting [1], the AC50 was 25.1 µM [falling, single point].

For the compound `CCNC(=S)N(CCc1c(C)[nH]c2ccc(Cl)cc12)Cc1ccco1`, the AC50 under setting [1] is 35.5 µM [falling, single point].

As for `O=C(COC(=O)c1ccc([N+](=O)[O-])o1)NC1CCCC1`, the AC50 under setting [1] was 29.1 µM [rising, single point].

For the compound `Cc1nnc2ccc(-c3cccc(NS(=O)(=O)c4cc(F)ccc4F)c3)nn12`, the AC50 under setting [1] was 0.164 µM [rising, full curve, poor fit].

For `Nc1n[nH]c(N)c1N=Nc1ccc(Cl)cc1`, under setting [1], the AC50 was 0.92 µM [rising, full curve, poor fit].

Take `CC(C(=O)N1CCN(c2ccc([N+](=O)[O-])cc2)CC1)N1C(=O)C2CC=CCC2C1=O` (stereo not drawn): the AC50 under setting [1] is 0.708 µM [rising, full curve, poor fit].

For `COCCN(Cc1cc2cc3c(cc2nc1Cl)OCO3)C(=O)Nc1ccc(F)cc1`, the AC50 under setting [1] is 29.1 µM [rising, single point].

As for `CNC(=O)c1ccc(-c2ccccc2)s1`, the AC50 under setting [1] is 28.2 µM [falling, single point].

For `CCCCSc1nnc(-c2ccc(C)cc2)c2ccccc12`, under setting [1], the AC50 was 29.1 µM [rising, single point].

As to `Nc1ncc2c(n1)-c1cc(Cl)ccc1SC2`, the AC50 under setting [1] is 5.01 µM [falling, partial curve, poor fit].

For `O=S(=O)(c1ccc(Br)cc1)N1CCCN(Cc2cccc(F)c2)CC1`, under setting [1], the AC50 is 32.6 µM [falling, single point].

Take `C/C=C/C(=O)NCCc1ccc(OC)c(OC)c1`: the AC50 under setting [1] was 35.5 µM [rising, single point].

Regarding `Clc1ccccc1Cn1nc(-c2ccccc2)nc1-c1ccccc1`, the half-maximal activity concentration (AC50) under setting [1] was 18.4 µM [rising, partial curve, poor fit].

As for `Cc1ccc(COC(=O)c2cc([N+](=O)[O-])ccc2N2CCOCC2)cc1`, the concentration at half-maximal activity (AC50) runs as follows: under setting [1], 11.2 µM [rising, partial curve]; under setting [2], 10 µM [falling, partial curve].

Take `CNC(=O)c1ccccc1Nc1ccc(SC(F)F)cc1`: the concentration at half-maximal activity (AC50) under setting [1] is 7.08 µM [rising, partial curve].

On to `Cc1ccsc1C(=O)OCc1nnc(-c2ccccc2)o1`, for which, under setting [1], the AC50 was 11.6 µM [falling, partial curve, poor fit].

Regarding `CCn1c(COc2cccc(C)c2)nnc1SCC(=O)Nc1cccc(C(=O)OC)c1`, the AC50 under setting [1] is 25.1 µM [falling, single point].

Consider `O=C(Cc1cccc2ccccc12)N1CC[C@@]2(O)CCCC[C@H]2C1`, for which the AC50 under setting [1] is 11.2 µM [falling, partial curve].

Turning to `N#Cc1ccc(C(=O)Nc2nnc(-c3ccco3)o2)cc1`, under setting [1], the AC50 was 7.94 µM [falling, partial curve, poor fit].

On to `Fc1cccc(Cl)c1-c1nnc2ccc(N3CCOCC3)nn12`, for which the AC50 under setting [1] is 3.26 µM [falling, partial curve, poor fit].

Consider `CCOc1ccccc1NC(=O)CSc1nnnn1-c1ccc(C(=O)OC)cc1`, for which the half-maximal activity concentration (AC50) under setting [1] was 7.08 µM [rising, partial curve, poor fit].

As to `Cc1cccc(C(=O)NC(C(=O)Nc2nc(-c3ccccn3)cs2)C(C)C)c1` (stereo not drawn), under setting [1], the AC50 is 15.8 µM [falling, partial curve, poor fit].

Turning to `CSCC[C@H](NC(=O)OC(C)(C)C)C(=O)N/N=C/c1cccc2cccnc12`, the AC50 under setting [1] was 6.31 µM [falling, partial curve].

For `COc1ccc(Nc2nccc(-c3ccc(C#N)cc3)n2)cc1`, the AC50 under setting [1] is 12.6 µM [falling, single point].

For `NC(=O)c1ccc(CN2CCc3ccccc3C2)cc1`, the AC50 under setting [1] was 6.31 µM [rising, single point].

For `Cc1c(C#N)c2ccccc2n1C`, the AC50 under setting [1] was 5.01 µM [rising, partial curve, poor fit].

For `O=C(Cc1ccccc1)N(Cc1cccnc1)c1nc2c(Cl)cccc2s1`, the AC50 is, setting by setting: under setting [1], 11.2 µM [falling, partial curve, poor fit]; under setting [2], 12.6 µM [rising, single point].

Consider `O=C(NN=C1CCCC1)c1ccccc1OCCOc1ccccc1`, for which the AC50 under setting [1] was 7.94 µM [falling, partial curve].

Regarding `O=C(CN1CCN(c2ccccn2)CC1)Nc1cccc(F)c1`, the AC50 under setting [1] is 11.2 µM [rising, partial curve].

`Cn1cc(/C=C(\NC(=O)c2ccccc2)C(=O)NCCN2CCOCC2)c2ccccc21`: the AC50 under setting [1] was 11.2 µM [falling, single point].

With `CCOC(=O)c1c(C)c(C(=O)NCC2CCCO2)c(C)n1CC` (stereo not drawn), the AC50 under setting [1] was 0.58 µM [falling, full curve, poor fit].

In the case of `Cc1sc2ncnc(SCC(=O)Nc3ncccc3O)c2c1C`, the AC50 under setting [1] is 16.4 µM [falling, partial curve, poor fit].

In the case of `Cc1ccc(C(=O)N=c2sccn2C)cc1S(=O)(=O)N1CCOCC1`, the AC50 under setting [1] is 8.2 µM [falling, partial curve].

On to `Cc1ccc(CC(=O)CCc2ccccc2)cc1`, for which, under setting [1], the AC50 was 2.59 µM [rising, full curve, poor fit].

As to `CCOC(=O)[C@@H]1[C@H]2COc3ccccc3[C@H]2N2C(=O)N(c3cccc(F)c3)C(=O)[C@]12C`, the AC50 under setting [1] is 7.08 µM [falling, partial curve].

Turning to `Cc1ccc(Sc2cnn(-c3ccccc3)c(=O)c2Cl)cc1`, the AC50 under setting [1] was 11.2 µM [falling, partial curve, poor fit].

Turning to `CN1CCN(C(=S)c2ccc(-c3cc(Cl)ccc3Cl)o2)CC1`, the AC50 under setting [1] is 3.98 µM [falling, partial curve, poor fit].

Consider `CCOC(=O)CSC(=S)NC(=O)c1ccc(OC)cc1`, for which the AC50 under setting [1] is 0.92 µM [rising, full curve, poor fit].

Take `Cc1ccccc1NC(=O)c1cnn(-c2ccccc2)c1C`: the AC50 under setting [1] was 5.01 µM [falling, partial curve].

For `Cc1ccc(NC(=O)Nc2cccc(C)n2)cc1`, the AC50 under setting [1] was 0.794 µM [rising, partial curve, poor fit].

Consider `O=S(=O)(Nc1nc2ccccc2nc1Cl)c1ccc(Cl)cc1`, for which the AC50 under setting [1] is 1.84 µM [rising, partial curve, poor fit].

`Cc1ccc(NC(=O)c2ccccc2-c2ccccc2C(=O)O)cc1C`: under setting [1], the concentration at half-maximal activity (AC50) was 35.5 µM [rising, single point].

In the case of `C/C(=N\NC(=O)C1=NNC(=O)C1C)c1cccs1` (stereo not drawn), the AC50 under setting [1] is 12.6 µM [falling, partial curve].

With `CNC(C)C#Cc1ccc2oc3cccc(OC)c3c(=O)c2c1` (stereo not drawn), the AC50 by setting is: under setting [1], 0.891 µM [rising, partial curve]; under setting [2], 1.26 µM [rising, partial curve, poor fit].

As to `CC1(C)CC(=O)C(C(=O)CCCCC(=O)C2C(=O)CC(C)(C)CC2=O)C(=O)C1`, the AC50 under setting [1] was 6.51 µM [rising, single point].

On to `Cc1ccccc1N1CCN(C2CCCN(C(=O)CCc3c(C)noc3C)C2)CC1` (stereo not drawn), for which, under setting [1], the AC50 is 35.5 µM [falling, single point].

Turning to `COc1ccccc1C(=O)Nc1ccc(C(=O)O)cc1`, the AC50 under setting [1] was 1.84 µM [falling, full curve].

With `O=C(N/N=C/c1cc2cc3c(cc2nc1Cl)OCCO3)c1ccccc1O`, the AC50 under setting [1] was 8.2 µM [falling, partial curve].

In the case of `Cc1ccc(SCCSc2nc(N)cc(=O)[nH]2)cc1`, the concentration at half-maximal activity (AC50) under setting [1] is 11.2 µM [rising, partial curve].

Consider `COc1ccc(CCNC(=O)CCNS(=O)(=O)c2ccc3c(c2)CCN3C(C)=O)cc1OC`, for which the AC50 under setting [1] is 3.66 µM [rising, full curve, poor fit].

Take `CC(C)=CCN1CCN(Cc2cnc(N3CCOCC3)s2)CC1CCO` (stereo not drawn): under setting [1], the AC50 is 0.316 µM [rising, full curve, poor fit].

As to `CC(=O)/C(N=Nc1ccc2c(c1)OCCO2)=C(\C)O`, the AC50 under setting [1] is 6.31 µM [falling, partial curve, poor fit].

Turning to `C=CCCC(=O)NC1CC(C)(C)Cc2c1cnn2-c1cccc(F)c1` (stereo not drawn), the AC50 under setting [1] is 35.5 µM [rising, single point].

Regarding `Cn1c(SCC(=O)N(C2CCCCC2)C2CCCCC2)nnc1-c1cccs1`, the AC50 under setting [1] is 0.0082 µM [falling, full curve, poor fit].
